According to US20230203114A1:
These are yes or no findings as the source states them, for the method shown. Binding calls can cover weak binding; strength is not graded here.

Target: HLA-A*02:01 (human)
Assay: UV-ligand exchange + anti-b2m ELISA; peptide exchange yield grade (+ >=10%, ++ >=20%, +++ >=50%, ++++ >=75%)

Binder | binding
KLLDVVHPA [… (SEQ ID NO: 131)] | binds
KQFEGTVEI [… (SEQ ID NO: 138)] | binds
ALVQGILERV [… (SEQ ID NO: 12)] | binds
LLNDRIWLA [… (SEQ ID NO: 144)] | binds
LQLDKEFQL [… (SEQ ID NO: 15)] | binds
LLGELPRLLLL [… (SEQ ID NO: 110)] | binds
RLLENMTEVV [… (SEQ ID NO: 148)] | binds
SLVQRVETI [… (SEQ ID NO: 142)] | binds
VLYEGVDEV [… (SEQ ID NO: 120)] | binds
RLAELTVDEFLA [… (SEQ ID NO: 127)] | binds
ALIKQLFEA [… (SEQ ID NO: 1)] | binds
VLLNEILEQV [… (SEQ ID NO: 139)] | binds
VLIDVLKEL [… (SEQ ID NO: 129)] | binds
QLTEIKPLL [… (SEQ ID NO: 137)] | binds
LVYQFVHPI [… (SEQ ID NO: 116)] | binds
ALLGGGPYML [… (SEQ ID NO: 107)] | binds
KLQEEIPVL [… (SEQ ID NO: 135)] | binds
TLQPVDNSTISL [… (SEQ ID NO: 117)] | binds
RTFEKIEEV [… (SEQ ID NO: 133)] | binds
ALDGDQMEL [… (SEQ ID NO: 109)] | binds
GLGGSQLIDTHL [… (SEQ ID NO: 130)] | binds
SLAELVPGVGGI [… (SEQ ID NO: 108)] | binds
YALDLSTFL [… (SEQ ID NO: 105)] | binds
ILLTIKDDTIYL [… (SEQ ID NO: 104)] | binds
KLGDFGLLVEL [… (SEQ ID NO: 125)] | binds
RVLPPSALQSV [… (SEQ ID NO: 124)] | binds

Binder | binding
KLFDIFSQQV [… (SEQ ID NO: 136)] | binds
SLISEKILL [… (SEQ ID NO: 106)] | binds
MLDDRAYLV [… (SEQ ID NO: 128)] | binds
ALSDETWGL [… (SEQ ID NO: 146)] | binds
LLLEVVKQV [… (SEQ ID NO: 145)] | binds
RMYNKIFAI [… (SEQ ID NO: 10)] | binds
YQFDKVGILTL [… (SEQ ID NO: 149)] | binds
FLDKPEDVLL [… (SEQ ID NO: 14)] | binds
AVIEHLERL [… (SEQ ID NO: 141)] | binds
KTLERSYLL [… (SEQ ID NO: 123)] | binds
GVAGGSILKGV [… (SEQ ID NO: 134)] | binds
KLGQVLIYL [… (SEQ ID NO: 112)] | binds
TLTELRAFL [… (SEQ ID NO: 147)] | binds
LLADLKTMV [… (SEQ ID NO: 118)] | binds
LLNEILEQV [… (SEQ ID NO: 140)] | binds
YLFEKTFNM [… (SEQ ID NO: 11)] | binds
TAVGHALVL [… (SEQ ID NO: 114)] | binds
SLFDVSHML [… (SEQ ID NO: 115)] | binds
ALLNAILHSA [… (SEQ ID NO: 132)] | binds
SLAPNIISQL [… (SEQ ID NO: 121)] | binds
ILYDLQQNL [… (SEQ ID NO: 113)] | binds
ILYQTVTGL [… (SEQ ID NO: 119)] | binds
VLVDQSWVL [… (SEQ ID NO: 16)] | binds
SLMGMVLKL [… (SEQ ID NO: 122)] | binds
KLSDVWKEL [… (SEQ ID NO: 143)] | binds

More lines, now with the values ahead:

binding | Binder
binds | KLLEFDQLQL [… (SEQ ID NO: 160)]
binds | RLADLEALKV [… (SEQ ID NO: 150)]
binds | GLIRFPLMTI [… (SEQ ID NO: 168)]
binds | RLLGEEVVRV [… (SEQ ID NO: 155)]
binds | SAQGSDVSLTACKV [… (SEQ ID NO: 151)]
binds | ALAGGITMV [… (SEQ ID NO: 170)]
binds | ILFSEDSTKLFV [… (SEQ ID NO: 153)]
binds | KMLDEILLQL [… (SEQ ID NO: 164)]
binds | GLLDPSVFHV [… (SEQ ID NO: 158)]
binds | KLLAVIHEL [… (SEQ ID NO: 152)]
binds | RLLHEVQEL [… (SEQ ID NO: 163)]
binds | SVIDHIHLISV [… (SEQ ID NO: 167)]
binds | SLIERDLKL [… (SEQ ID NO: 157)]
binds | RLLDFPEAMVL [… (SEQ ID NO: 165)]
binds | KLMDYIDEL [… (SEQ ID NO: 162)]
binds | YLAHFIEGL [… (SEQ ID NO: 169)]
binds | FLKNELDNV [… (SEQ ID NO: 161)]
binds | KLPSETIFVGC [… (SEQ ID NO: 154)]
binds | SLMMTIINL [… (SEQ ID NO: 156)]
binds | VLVDDDGIKVV [… (SEQ ID NO: 159)]
binds | GLLEARGILGL [… (SEQ ID NO: 166)]
binds | LLLDTVTMQV [… (SEQ ID NO: 172)]
binds | KLGDLMVLL [… (SEQ ID NO: 173)]
binds | RLQETEGMVAV [… (SEQ ID NO: 171)]
binds | ILLDDNMQIRL [… (SEQ ID NO: 174)]
